Experimental data as given in publication PMC11067709 (Clinical and Translational Science, 2024).

Test: clinical
Conditions: male, human, plasma, po, 500 mg, 5 days, Arm C; for Cmax: C max,ss; for Tmax: T max,ss, median [minimum–maximum]

AUC (AUCτ,ss, combination: naproxen 500 mg BID + fexuprazan 40 mg BID, mean ± SD): 907 ± 111 µg·h/mL
Cmax (combination: naproxen 500 mg BID + fexuprazan 40 mg BID, mean ± SD): 114 ± 12.9 µg/mL
Cmax (monotherapy: naproxen 500 mg BID, mean ± SD): 104 ± 10.8 µg/mL
Tmax (combination: naproxen 500 mg BID + fexuprazan 40 mg BID): 1.5 h
Tmax (monotherapy: naproxen 500 mg BID): 3 h
SMILES: COc1ccc2cc([C@H](C)C(=O)O)ccc2c1 [Naproxen]
